Assay results: article PMC12009912
Where two headings read alike, the source gives them in different places. Results are given in words; binding and its absence hold for the method and conditions named. In cells and extracts the contact can be indirect. These calls come from enrichment with a bait or labelling near it, and not all partners need be listed.

By UniProt entry, the sequences of proteins in these tests, tags left out. Where a name states a change or a piece, a line headed by the entry shows the natural chain unless it says otherwise.
UniProt P06837: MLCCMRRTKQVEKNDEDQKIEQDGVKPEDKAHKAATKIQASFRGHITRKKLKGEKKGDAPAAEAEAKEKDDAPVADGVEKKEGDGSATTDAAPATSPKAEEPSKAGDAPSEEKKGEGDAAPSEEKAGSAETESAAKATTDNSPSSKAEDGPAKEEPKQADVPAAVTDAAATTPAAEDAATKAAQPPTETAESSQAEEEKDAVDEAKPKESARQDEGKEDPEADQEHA
UniProt Q09666: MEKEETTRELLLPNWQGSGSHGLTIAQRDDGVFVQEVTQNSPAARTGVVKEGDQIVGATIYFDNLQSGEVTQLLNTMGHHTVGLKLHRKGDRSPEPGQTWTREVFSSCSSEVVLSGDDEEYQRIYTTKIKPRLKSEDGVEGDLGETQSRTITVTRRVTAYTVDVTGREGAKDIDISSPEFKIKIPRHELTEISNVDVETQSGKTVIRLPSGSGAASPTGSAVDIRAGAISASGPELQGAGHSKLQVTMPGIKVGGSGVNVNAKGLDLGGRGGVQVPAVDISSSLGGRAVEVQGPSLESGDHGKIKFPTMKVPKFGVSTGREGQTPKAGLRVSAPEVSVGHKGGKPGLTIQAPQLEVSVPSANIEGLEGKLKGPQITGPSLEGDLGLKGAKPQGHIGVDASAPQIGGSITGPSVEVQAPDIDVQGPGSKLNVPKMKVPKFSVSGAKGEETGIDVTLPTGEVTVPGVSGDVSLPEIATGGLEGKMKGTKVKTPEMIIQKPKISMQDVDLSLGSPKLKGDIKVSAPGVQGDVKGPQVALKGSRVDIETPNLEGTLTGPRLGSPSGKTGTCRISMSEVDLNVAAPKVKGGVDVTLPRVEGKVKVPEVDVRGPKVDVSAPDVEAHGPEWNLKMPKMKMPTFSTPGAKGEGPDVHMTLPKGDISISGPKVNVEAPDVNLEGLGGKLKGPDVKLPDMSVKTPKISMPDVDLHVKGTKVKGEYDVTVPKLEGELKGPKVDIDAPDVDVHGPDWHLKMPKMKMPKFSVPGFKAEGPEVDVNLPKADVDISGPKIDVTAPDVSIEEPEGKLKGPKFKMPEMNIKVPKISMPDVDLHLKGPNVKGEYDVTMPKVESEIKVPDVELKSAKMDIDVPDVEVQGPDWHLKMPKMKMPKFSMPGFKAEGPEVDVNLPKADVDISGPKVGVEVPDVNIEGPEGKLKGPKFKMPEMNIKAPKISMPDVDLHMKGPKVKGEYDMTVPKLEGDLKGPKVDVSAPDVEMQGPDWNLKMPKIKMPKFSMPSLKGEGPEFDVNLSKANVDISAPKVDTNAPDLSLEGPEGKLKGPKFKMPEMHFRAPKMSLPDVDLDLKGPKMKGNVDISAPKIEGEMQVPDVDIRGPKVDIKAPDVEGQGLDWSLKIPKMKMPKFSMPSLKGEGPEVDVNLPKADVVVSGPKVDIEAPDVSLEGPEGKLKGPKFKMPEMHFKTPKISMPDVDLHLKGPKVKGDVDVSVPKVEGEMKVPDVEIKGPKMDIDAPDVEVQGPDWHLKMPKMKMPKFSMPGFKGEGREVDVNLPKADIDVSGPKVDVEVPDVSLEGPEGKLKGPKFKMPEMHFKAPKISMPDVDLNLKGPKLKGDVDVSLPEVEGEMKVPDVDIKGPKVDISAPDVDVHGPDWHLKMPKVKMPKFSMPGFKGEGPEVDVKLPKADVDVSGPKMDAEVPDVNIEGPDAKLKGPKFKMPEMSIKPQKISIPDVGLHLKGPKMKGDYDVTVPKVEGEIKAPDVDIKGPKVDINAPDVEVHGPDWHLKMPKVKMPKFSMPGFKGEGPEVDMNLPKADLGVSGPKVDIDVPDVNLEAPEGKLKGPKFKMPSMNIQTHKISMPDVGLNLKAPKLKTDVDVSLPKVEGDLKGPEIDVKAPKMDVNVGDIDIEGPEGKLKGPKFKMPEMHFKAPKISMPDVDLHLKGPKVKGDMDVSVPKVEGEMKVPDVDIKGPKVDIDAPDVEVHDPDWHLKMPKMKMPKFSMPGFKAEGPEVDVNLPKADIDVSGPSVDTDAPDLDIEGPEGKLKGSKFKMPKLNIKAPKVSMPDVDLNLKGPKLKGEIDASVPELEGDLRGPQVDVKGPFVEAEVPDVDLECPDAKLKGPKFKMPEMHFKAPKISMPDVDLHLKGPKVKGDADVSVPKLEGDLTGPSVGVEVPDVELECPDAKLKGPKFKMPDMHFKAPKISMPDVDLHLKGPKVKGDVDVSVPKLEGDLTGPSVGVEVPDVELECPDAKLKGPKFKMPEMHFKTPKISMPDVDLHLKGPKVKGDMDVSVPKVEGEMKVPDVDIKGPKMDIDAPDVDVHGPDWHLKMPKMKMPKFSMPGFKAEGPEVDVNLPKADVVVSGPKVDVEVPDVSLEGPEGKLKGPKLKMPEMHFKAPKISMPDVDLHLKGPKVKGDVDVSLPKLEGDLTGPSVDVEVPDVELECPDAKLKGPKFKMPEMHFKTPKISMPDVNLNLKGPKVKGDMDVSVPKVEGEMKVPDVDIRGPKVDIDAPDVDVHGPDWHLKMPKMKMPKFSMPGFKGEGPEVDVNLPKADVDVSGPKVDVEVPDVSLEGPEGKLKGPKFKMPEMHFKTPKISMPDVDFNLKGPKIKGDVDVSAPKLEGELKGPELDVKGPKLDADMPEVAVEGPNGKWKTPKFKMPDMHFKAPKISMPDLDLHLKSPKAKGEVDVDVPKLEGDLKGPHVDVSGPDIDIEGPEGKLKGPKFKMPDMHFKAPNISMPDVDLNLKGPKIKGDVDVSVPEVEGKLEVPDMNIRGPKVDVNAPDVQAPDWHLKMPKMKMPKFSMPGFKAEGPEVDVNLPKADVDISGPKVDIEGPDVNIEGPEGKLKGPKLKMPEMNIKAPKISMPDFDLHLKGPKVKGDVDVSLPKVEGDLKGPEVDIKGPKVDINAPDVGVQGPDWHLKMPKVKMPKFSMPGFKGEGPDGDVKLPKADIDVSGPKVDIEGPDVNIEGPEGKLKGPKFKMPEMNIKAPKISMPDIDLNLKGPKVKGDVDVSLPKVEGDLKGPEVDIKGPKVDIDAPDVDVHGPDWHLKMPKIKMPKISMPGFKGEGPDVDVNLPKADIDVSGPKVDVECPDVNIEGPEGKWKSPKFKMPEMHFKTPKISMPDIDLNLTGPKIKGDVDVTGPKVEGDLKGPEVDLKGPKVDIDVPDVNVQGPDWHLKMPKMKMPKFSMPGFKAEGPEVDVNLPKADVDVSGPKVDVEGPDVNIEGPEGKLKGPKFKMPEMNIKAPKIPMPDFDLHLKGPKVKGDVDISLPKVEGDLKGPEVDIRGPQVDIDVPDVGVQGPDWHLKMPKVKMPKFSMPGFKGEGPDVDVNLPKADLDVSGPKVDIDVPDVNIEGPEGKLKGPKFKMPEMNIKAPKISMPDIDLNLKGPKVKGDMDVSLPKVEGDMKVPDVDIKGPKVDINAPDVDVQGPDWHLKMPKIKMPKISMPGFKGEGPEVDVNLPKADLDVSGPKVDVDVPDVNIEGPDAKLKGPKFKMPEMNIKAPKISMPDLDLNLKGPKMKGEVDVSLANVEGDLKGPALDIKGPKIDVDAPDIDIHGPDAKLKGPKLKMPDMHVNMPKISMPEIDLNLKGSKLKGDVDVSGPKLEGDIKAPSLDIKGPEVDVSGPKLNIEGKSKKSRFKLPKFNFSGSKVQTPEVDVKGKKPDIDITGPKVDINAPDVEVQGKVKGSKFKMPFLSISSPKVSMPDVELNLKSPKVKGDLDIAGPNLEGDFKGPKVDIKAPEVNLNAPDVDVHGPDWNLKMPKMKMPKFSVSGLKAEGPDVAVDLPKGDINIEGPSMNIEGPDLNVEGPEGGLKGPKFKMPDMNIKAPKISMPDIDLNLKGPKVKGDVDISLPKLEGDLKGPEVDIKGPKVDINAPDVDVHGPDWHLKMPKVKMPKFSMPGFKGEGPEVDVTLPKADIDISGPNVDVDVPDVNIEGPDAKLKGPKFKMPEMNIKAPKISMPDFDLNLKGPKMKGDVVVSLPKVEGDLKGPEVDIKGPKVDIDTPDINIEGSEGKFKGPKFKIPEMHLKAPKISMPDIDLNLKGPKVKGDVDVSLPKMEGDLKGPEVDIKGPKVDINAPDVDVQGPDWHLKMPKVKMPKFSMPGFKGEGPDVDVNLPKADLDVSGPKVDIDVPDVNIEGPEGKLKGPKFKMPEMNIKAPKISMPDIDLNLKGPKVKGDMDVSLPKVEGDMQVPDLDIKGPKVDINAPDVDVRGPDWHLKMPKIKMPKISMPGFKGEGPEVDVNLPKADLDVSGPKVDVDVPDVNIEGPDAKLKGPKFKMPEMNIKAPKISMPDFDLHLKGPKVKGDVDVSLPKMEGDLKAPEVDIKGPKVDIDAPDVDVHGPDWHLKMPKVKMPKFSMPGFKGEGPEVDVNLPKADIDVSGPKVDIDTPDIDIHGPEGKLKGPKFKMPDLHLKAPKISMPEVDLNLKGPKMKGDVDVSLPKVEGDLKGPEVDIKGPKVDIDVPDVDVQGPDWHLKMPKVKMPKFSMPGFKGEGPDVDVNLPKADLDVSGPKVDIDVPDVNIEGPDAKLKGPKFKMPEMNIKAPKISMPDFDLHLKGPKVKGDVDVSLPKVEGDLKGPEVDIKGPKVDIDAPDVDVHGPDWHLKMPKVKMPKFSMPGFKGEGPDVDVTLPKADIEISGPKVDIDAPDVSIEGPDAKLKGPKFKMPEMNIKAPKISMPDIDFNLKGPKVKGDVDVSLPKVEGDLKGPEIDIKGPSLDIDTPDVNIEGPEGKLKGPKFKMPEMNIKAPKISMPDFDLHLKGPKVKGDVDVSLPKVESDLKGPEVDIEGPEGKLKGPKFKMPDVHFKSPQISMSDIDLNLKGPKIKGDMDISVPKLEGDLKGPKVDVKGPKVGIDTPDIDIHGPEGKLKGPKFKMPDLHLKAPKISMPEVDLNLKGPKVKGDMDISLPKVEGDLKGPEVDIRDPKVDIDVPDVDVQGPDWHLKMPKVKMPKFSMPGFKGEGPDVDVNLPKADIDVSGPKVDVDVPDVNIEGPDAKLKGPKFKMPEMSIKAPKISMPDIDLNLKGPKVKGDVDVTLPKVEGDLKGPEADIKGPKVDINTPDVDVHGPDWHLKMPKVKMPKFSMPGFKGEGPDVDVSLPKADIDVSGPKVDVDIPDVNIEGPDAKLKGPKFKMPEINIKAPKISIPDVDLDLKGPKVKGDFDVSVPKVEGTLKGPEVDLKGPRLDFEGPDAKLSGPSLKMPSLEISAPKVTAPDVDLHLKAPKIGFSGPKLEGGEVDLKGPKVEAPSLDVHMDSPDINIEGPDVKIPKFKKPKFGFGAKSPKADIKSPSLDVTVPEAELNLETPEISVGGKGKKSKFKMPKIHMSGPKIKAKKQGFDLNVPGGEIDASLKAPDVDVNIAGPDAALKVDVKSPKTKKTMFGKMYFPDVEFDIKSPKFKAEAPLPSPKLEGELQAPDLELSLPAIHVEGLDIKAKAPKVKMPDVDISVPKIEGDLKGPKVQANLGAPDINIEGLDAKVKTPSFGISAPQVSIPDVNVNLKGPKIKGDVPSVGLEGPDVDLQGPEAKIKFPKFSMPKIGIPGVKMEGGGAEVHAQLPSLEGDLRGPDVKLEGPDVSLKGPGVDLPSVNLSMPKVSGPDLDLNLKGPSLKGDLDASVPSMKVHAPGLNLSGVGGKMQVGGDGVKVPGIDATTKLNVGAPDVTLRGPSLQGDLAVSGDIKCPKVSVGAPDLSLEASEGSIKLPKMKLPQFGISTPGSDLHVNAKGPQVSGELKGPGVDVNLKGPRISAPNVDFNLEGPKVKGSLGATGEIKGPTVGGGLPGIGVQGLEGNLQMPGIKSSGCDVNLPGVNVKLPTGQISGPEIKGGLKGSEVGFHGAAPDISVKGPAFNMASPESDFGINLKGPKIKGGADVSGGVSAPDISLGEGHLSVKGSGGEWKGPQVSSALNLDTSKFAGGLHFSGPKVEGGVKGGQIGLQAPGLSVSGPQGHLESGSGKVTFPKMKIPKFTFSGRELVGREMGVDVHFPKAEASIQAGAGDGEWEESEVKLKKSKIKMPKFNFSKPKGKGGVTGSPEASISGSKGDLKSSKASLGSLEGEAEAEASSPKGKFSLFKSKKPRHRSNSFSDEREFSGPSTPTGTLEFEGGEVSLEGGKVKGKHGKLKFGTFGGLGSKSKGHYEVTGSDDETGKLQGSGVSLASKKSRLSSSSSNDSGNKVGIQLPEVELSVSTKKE
UniProt P06748: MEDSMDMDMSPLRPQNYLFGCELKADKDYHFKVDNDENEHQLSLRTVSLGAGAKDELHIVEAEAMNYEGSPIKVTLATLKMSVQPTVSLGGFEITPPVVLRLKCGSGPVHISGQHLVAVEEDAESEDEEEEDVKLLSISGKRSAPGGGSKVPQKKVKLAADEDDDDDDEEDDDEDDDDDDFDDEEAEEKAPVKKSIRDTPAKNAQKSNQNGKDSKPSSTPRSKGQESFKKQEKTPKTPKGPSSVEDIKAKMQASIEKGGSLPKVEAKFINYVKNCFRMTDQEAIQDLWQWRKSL

Tests used:
Assay in all cases: affinity purification with mass spectrometry; HeLa cells transiently transfected with GAP-43-GFP (WT, S86A,T172A or phosphomimetic double mutant) or GFP alone; lysis 24 h later in 1% Triton X-100, 10% glycerol, 10 mM Tris/Cl pH 7.5, 150 mM NaCl, 0.5 mM EDTA; GFP-Trap agarose beads, 2 h at 4°C; TMT-MS; N = 3 per condition
[1] = biological target: GAP-43 phosphoablative double mutant (S86A,T172A), GFP fusion (murine) (UniProt P06837)
[2] = biological target: Growth-associated protein 43 (GAP-43) WT, GFP fusion (murine) (UniProt P06837)
[3] = biological target: GAP-43 phosphoablative double mutant (S86A,T172A), GFP fusion (murine) (UniProt P06837); remark: listed apart in the source

Molecule | binding [1] | binding [2] | binding [3]
Neuroblast differentiation-associated protein AHNAK (AHNAK) (from UniProt Q09666 1-5890) | binds |  | 
EEF1G (from UniProt P26641 1-437) | binds |  | 
nucleophosmin (NPM1) (from UniProt P06748 1-294) | binds | binds | 

Continued, values first:

binding [1] | binding [2] | binding [3] | Molecule
binds |  |  | Elongation factor 1-alpha 1 (EEF1A1) (from UniProt P68104 1-462)
 |  | binds | PA2G4 (protein, UniProt Q9UQ80 1-394) MSGEDEQQEQTIAEDLVVTKYKMGGDIANRVLRSLVEASSSGVSVLSLCEKGDAMIMEETGKIFKKEKEMKKGIAFPTSISVNNCVCHFSPLKSDQDYILKEGDLVKIDLGVHVDGFIANVAHTFVVDVAQGTQVTGRKADVIKAAHLCAEAALRLVKPGNQNTQVTEAWNKVAHSFNCTPIEGMLSHQLKQHVIDGEKTIIQNPTDQQKKDHEKAEFEVHEVYAVDVLVSSGEGKAKDAGQRTTIYKRDPSKQYGLKMKTSRAFFSEVERRFDAMPFTLRAFEDEKKARMGVVECAKHELLQPFNVLYEKEGEFVAQFKFTVLLMPNGPMRITSGPFEPDLYKSEMEVQDAELKALLQSSASRKTQKKKKKKASKTAENATSGETLEENEAGD
